Experimental findings from PMC3287977 are described below.

No constants are given. Whether binding was seen depends on the method and setting. In cells and extracts the contact can be indirect. Some entries that bind do so weakly or less than the wild type. Where a sequence is shown, tags or fusion partners need not be part of it.

T1: GST-tagged E. coli HypA (E. coli) (UniProt P0A700)
T1 sequence: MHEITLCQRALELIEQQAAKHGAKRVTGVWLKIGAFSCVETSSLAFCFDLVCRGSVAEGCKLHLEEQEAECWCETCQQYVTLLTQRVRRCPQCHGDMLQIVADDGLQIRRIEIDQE

B1: His-SUMO-tagged E. coli HypB, wild type (protein, UniProt P0AAN3 1-290)
chain: MCTTCGCGEGNLYIEGDEHNPHSAFRSAPFAPAARPKMKITGIKAPEFTPSQTEEGDLHYGHGEAGTHAPGMSQRRMLEVEIDVLDKNNRLAERNRARFAARKQLVLNLVSSPGSGKTTLLTETLMRLKDSVPCAVIEGDQQTVNDAARIRATGTPAIQVNTGKGCHLDAQMIADAAPRLPLDDNGILFIENVGNLVCPASFDLGEKHKVAVLSVTEGEDKPLKYPHMFAAASLMLLNKVDLLPYLNFDVEKCIACAREVNPEIEIILISATSGEGMDQWLNWLETQRCA
B2: His-SUMO-tagged E. coli HypB E79A (protein, UniProt P0AAN3 1-290)
chain: MCTTCGCGEGNLYIEGDEHNPHSAFRSAPFAPAARPKMKITGIKAPEFTPSQTEEGDLHYGHGEAGTHAPGMSQRRMLAVEIDVLDKNNRLAERNRARFAARKQLVLNLVSSPGSGKTTLLTETLMRLKDSVPCAVIEGDQQTVNDAARIRATGTPAIQVNTGKGCHLDAQMIADAAPRLPLDDNGILFIENVGNLVCPASFDLGEKHKVAVLSVTEGEDKPLKYPHMFAAASLMLLNKVDLLPYLNFDVEKCIACAREVNPEIEIILISATSGEGMDQWLNWLETQRCA
B3: His-SUMO-tagged E. coli HypB L78A (protein, UniProt P0AAN3 1-290)
chain: MCTTCGCGEGNLYIEGDEHNPHSAFRSAPFAPAARPKMKITGIKAPEFTPSQTEEGDLHYGHGEAGTHAPGMSQRRMAEVEIDVLDKNNRLAERNRARFAARKQLVLNLVSSPGSGKTTLLTETLMRLKDSVPCAVIEGDQQTVNDAARIRATGTPAIQVNTGKGCHLDAQMIADAAPRLPLDDNGILFIENVGNLVCPASFDLGEKHKVAVLSVTEGEDKPLKYPHMFAAASLMLLNKVDLLPYLNFDVEKCIACAREVNPEIEIILISATSGEGMDQWLNWLETQRCA
B4: His-SUMO-tagged E. coli HypB V80A (protein, UniProt P0AAN3 1-290)
chain: MCTTCGCGEGNLYIEGDEHNPHSAFRSAPFAPAARPKMKITGIKAPEFTPSQTEEGDLHYGHGEAGTHAPGMSQRRMLEAEIDVLDKNNRLAERNRARFAARKQLVLNLVSSPGSGKTTLLTETLMRLKDSVPCAVIEGDQQTVNDAARIRATGTPAIQVNTGKGCHLDAQMIADAAPRLPLDDNGILFIENVGNLVCPASFDLGEKHKVAVLSVTEGEDKPLKYPHMFAAASLMLLNKVDLLPYLNFDVEKCIACAREVNPEIEIILISATSGEGMDQWLNWLETQRCA

This experiment concerns the target T1, GST-tagged E. coli HypA (E. coli). As to the kind of experiment: pull-down; GST-EcHypA as bait on glutathione resin; lysate of His-SUMO-EcHypB (tag not cleaved) or variant mixed with GST-EcHypA lysate; washed with PBS; eluted with 20 mM GSH; SDS-PAGE.
Take B1: the binding result is given as “binds”.
Regarding B2, the binding entry is recorded as “binds”.
With B3 the entry was “no binding”; with B4, “no binding”.
